Data as given in PubChem BioAssay AID504764 (Drosophila RNAi Screening Center, 2011).
Purpose: 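Knock-downs that raise or lower a Notch target reporter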 (primary screen). System: Drosophila Kc167 cells. Knock-down reagent: long dsRNA against Drosophila genes. Time to read-out: about 5 days (4 days dsRNA, then 24 h after transfection). Conditions: transfection of constitutively active membrane-tethered Notch lacking the extracellular domain, read 24 h later. Read-out: 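Firefly luciferase from an E(spl)m3 reporter with active Notch, plus control-promoter and uninduced reporter wells for normalisation; unnormalised counts, duplicate wells a and b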. Reading the numbers: induced reporter light, run 1, well a and induced reporter light, run 1, well b: higher = more light from the Notch target reporter with active Notch; control promoter light, run 1, well a and control promoter light, run 1, well b: higher = more light from the viral control promoter (cell number, transfection, viability); uninduced reporter light, run 1, well a: higher = more light from the Notch target reporter without active Notch. Hit rule: 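Hit if the duplicate-averaged log2 ratio of induced to control-promoter light gives a plate-wise z beyond ±2, or induced to uninduced beyond ±1.8; weak-control or discordant-duplicate wells dropped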. Meaning of the calls: active = modifier hit (raised or lowered Notch signal); inactive = not a hit.
The screen tested about 22,000 reagents; below is a random part of those that have a named target and a result. Of all reagents, 403 (1.9%) are marked active. 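Unnormalised raw counts per well; ratio z-scores behind the hit calls and whether each hit raises or lowers signal are not deposited.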 Unmarked entries are inactive. Not stated in the record: the amount of reagent.

With CG13476 [DRSC10019], what was measured?
induced reporter light, run 1, well a: 1.29e5; induced reporter light, run 1, well b: 1.67e5; control promoter light, run 1, well a: 2.22e5; control promoter light, run 1, well b: 1.96e5; uninduced reporter light, run 1, well a: 8930

With Pus1 [DRSC15548], how do the results read?
induced reporter light, run 1, well a: 1.78e5; induced reporter light, run 1, well b: 1.49e5; control promoter light, run 1, well a: 1.90e5; control promoter light, run 1, well b: 1.70e5; uninduced reporter light, run 1, well a: 10615

What is on record for Ufsp2 [DRSC10231]?
induced reporter light, run 1, well a: 1.52e5; induced reporter light, run 1, well b: 1.56e5; control promoter light, run 1, well a: 81965; control promoter light, run 1, well b: 88030; uninduced reporter light, run 1, well a: 9855

How did the screen score Rabex-5 [DRSC08628]?
induced reporter light, run 1, well a: 98730; induced reporter light, run 1, well b: 1.15e5; control promoter light, run 1, well a: 1.95e5; control promoter light, run 1, well b: 2.25e5; uninduced reporter light, run 1, well a: 8865

With Trmt6 [DRSC03272], what does the deposit list?
induced reporter light, run 1, well a: 1.85e5; induced reporter light, run 1, well b: 1.30e5; control promoter light, run 1, well a: 1.59e5; control promoter light, run 1, well b: 1.74e5; uninduced reporter light, run 1, well a: 9245

For CG13021 [DRSC17893], what was measured?
induced reporter light, run 1, well a: 1.33e5; induced reporter light, run 1, well b: 1.26e5; control promoter light, run 1, well a: 2.06e5; control promoter light, run 1, well b: 2.50e5; uninduced reporter light, run 1, well a: 10805

How did the screen score Acp29AB [DRSC01857]?
induced reporter light, run 1, well a: 1.01e5; induced reporter light, run 1, well b: 1.01e5; control promoter light, run 1, well a: 64820; control promoter light, run 1, well b: 87080; uninduced reporter light, run 1, well a: 11405

Which result is listed for pck [DRSC18565]?
induced reporter light, run 1, well a: 2.12e5; induced reporter light, run 1, well b: 2.12e5; control promoter light, run 1, well a: 2.86e5; control promoter light, run 1, well b: 3.01e5; uninduced reporter light, run 1, well a: 15975

For Cenp-C [DRSC14371], how do the results read?
induced reporter light, run 1, well a: 90620; induced reporter light, run 1, well b: 1.04e5; control promoter light, run 1, well a: 70840; control promoter light, run 1, well b: 62060; uninduced reporter light, run 1, well a: 5650

For mira [DRSC16998], what was measured?
induced reporter light, run 1, well a: 1.72e5; induced reporter light, run 1, well b: 1.83e5; control promoter light, run 1, well a: 1.67e5; control promoter light, run 1, well b: 2.02e5; uninduced reporter light, run 1, well a: 13105

With CG9861 [DRSC04576], how do the results read?
induced reporter light, run 1, well a: 2.24e5; induced reporter light, run 1, well b: 2.18e5; control promoter light, run 1, well a: 2.30e5; control promoter light, run 1, well b: 2.39e5; uninduced reporter light, run 1, well a: 17790

Which result is listed for Map205 [DRSC16732]?
induced reporter light, run 1, well a: 95800 (active); induced reporter light, run 1, well b: 95055; control promoter light, run 1, well a: 1.88e5; control promoter light, run 1, well b: 2.21e5; uninduced reporter light, run 1, well a: 8215

2 neighbouring entries already listed, for reference:
Ufsp2 [DRSC10231] → induced reporter light, run 1, well a = 1.52e5; induced reporter light, run 1, well b = 1.56e5; control promoter light, run 1, well a = 81965; control promoter light, run 1, well b = 88030; uninduced reporter light, run 1, well a = 9855
Rabex-5 [DRSC08628] → induced reporter light, run 1, well a = 98730; induced reporter light, run 1, well b = 1.15e5; control promoter light, run 1, well a = 1.95e5; control promoter light, run 1, well b = 2.25e5; uninduced reporter light, run 1, well a = 8865
